Some results were stated once for a whole list of compounds, not compound by compound.
How the values were obtained:
Format in all cases: in vivo
[1] = tested on: Myzus persicae (Green Peach Aphid); experiment: Myzus persicae sachet test, mixed population; details: 12.5 ppm in sucrose solution (sachet), mortality 5 days after infestation
[2] = tested on: Euschistus heros (Neotropical Brown Stink Bug); experiment: Euschistus heros contact/feeding activity on soybean plants; details: 50 ppm spray on 2 week old soybean plants, N-2 nymphs; mortality and growth effect 5 days after infestation
[3] = tested on: Nilaparvata lugens (Brown Plant Hopper); experiment: Nilaparvata lugens larvicide, feeding/contact on rice seedlings; details: 200 ppm spray on rice seedlings, N3 nymphs; mortality 6-12 days after treatment
[4] = tested on: Anthonomus grandis (Cotton Boll Weevil); experiment: Anthonomus grandis adulticide, feeding/contact on cotton plants; details: 50 ppm spray on cotton plants, adult weevils; mortality 5 days after treatment

Cc1cc(C2=NO[C@@](c3cc(Cl)c(Cl)c(Cl)c3)(C(F)(F)F)C2)ccc1C(=O)N[C@H]1C[S@@+]([O-])C1 [Compound C17, 2-methyl-N-(1-oxothietan-3-yl)-4-[(5S)-5-(3,4,5-trichlorophenyl)-5-(trifluoromethyl)-4H-isoxazol-3-yl]benzamide]
at least 80%: control of Myzus persicae [1] | control of Euschistus heros [2] | control of Nilaparvata lugens [3] | control of Anthonomus grandis [4]

O=C(N[C@H]1C[S@@+]([O-])C1)c1ccc(C2=NO[C@@](c3cc(Cl)cc(Cl)c3)(C(F)(F)F)C2)cc1Cl [Compound C15, 2-chloro-4-[(5S)-5-(3,5-dichlorophenyl)-5-(trifluoromethyl)-4H-isoxazol-3-yl]-N-(1-oxidothietan-1-ium-3-yl)benzamide]
at least 80%: control of Myzus persicae [1] | control of Euschistus heros [2] | control of Nilaparvata lugens [3] | control of Anthonomus grandis [4]

Cc1cc(C2=NO[C@@](c3cc(Cl)c(F)c(Cl)c3)(C(F)(F)F)C2)ccc1C(=O)NC1CS(=O)(=O)C1 [Compound C18, 4-[(5S)-5-(3,5-dichloro-4-fluoro-phenyl)-5-(trifluoromethyl)-4H-isoxazol-3-yl]-N-(1,1-dioxothietan-3-yl)-2-methyl-benzamide]
at least 80%: control of Myzus persicae [1] | control of Euschistus heros [2] | control of Nilaparvata lugens [3] | control of Anthonomus grandis [4]
